In one assay the test system is iRPE cells. Nature of the assay: Proteotoxic high throughput screen (LOPAC) and follow up screen: survival of A23187 treated iRPE. It is filed as cell-based, human. The settings on record: seven-point dose curve; A23187 2.5, 5, 10 μM; two iRPE samples. As to the method:
10 μM concentration of A23187 was selected for the drug screening, because it provided a bigger margin for cell death rescue. […] Drug treatment along with the stressor, 10 μM A23187 were added on to iRPE cells matured in 384-well plates and cell death was scored 48 hours later by ATP release using the CellTitrGlo assay.
To distinguish false positives from the real signal, a follow up screen on all of the 45 drugs using iRPE derived from two different iPSC lines was performed. The follow up screen was performed at three different A23187 concentrations (2.5, 5, 10 μM) and with seven different concentrations of drugs ranging from 10 nM-1 mM (FIG. 13D-F). […] Overall, the HTS screen provided two drugs for testing in the in vitro AMD model.

The subject of a further assay is ATG5. Nature of the assay: ATG5 immunostaining in CC-HS treated iRPE. Type of assay: cell-based, human. The settings on record: co-treatment with CC-HS.

“Also recorded” adds a separate entry of the source.

As to `Nc1nc2ccc(OC(F)(F)F)cc2s1` [riluzole], the “cytoprotective activity in follow up screen” value with iRPE cells is “reproducible cell survival; also recorded: linear response the seven-point dose curve and reproducibility between two different iRPE samples”. Also, the “reduced expression of autophagy protein, ATG5” value in the assay with ATG5 is “does not lead to”.

(Values after US20220339127A1, “DRUGGABLE TARGET TO TREAT RETINAL DEGENERATION” (The United States of America,as represented by the …, priority 2019, published 2022).)
